Assay results from paper PMC5037378.
No constants are given. Whether binding was seen depends on the method and setting. Some results given as binding are weak or reduced against the parent protein; the word gives no strength. Sequences can lack the tags named with a protein.

Amino acid sequences for entries named in this document (tags omitted). Residues count along the entry.
UniProt P13608, residues 17-2364: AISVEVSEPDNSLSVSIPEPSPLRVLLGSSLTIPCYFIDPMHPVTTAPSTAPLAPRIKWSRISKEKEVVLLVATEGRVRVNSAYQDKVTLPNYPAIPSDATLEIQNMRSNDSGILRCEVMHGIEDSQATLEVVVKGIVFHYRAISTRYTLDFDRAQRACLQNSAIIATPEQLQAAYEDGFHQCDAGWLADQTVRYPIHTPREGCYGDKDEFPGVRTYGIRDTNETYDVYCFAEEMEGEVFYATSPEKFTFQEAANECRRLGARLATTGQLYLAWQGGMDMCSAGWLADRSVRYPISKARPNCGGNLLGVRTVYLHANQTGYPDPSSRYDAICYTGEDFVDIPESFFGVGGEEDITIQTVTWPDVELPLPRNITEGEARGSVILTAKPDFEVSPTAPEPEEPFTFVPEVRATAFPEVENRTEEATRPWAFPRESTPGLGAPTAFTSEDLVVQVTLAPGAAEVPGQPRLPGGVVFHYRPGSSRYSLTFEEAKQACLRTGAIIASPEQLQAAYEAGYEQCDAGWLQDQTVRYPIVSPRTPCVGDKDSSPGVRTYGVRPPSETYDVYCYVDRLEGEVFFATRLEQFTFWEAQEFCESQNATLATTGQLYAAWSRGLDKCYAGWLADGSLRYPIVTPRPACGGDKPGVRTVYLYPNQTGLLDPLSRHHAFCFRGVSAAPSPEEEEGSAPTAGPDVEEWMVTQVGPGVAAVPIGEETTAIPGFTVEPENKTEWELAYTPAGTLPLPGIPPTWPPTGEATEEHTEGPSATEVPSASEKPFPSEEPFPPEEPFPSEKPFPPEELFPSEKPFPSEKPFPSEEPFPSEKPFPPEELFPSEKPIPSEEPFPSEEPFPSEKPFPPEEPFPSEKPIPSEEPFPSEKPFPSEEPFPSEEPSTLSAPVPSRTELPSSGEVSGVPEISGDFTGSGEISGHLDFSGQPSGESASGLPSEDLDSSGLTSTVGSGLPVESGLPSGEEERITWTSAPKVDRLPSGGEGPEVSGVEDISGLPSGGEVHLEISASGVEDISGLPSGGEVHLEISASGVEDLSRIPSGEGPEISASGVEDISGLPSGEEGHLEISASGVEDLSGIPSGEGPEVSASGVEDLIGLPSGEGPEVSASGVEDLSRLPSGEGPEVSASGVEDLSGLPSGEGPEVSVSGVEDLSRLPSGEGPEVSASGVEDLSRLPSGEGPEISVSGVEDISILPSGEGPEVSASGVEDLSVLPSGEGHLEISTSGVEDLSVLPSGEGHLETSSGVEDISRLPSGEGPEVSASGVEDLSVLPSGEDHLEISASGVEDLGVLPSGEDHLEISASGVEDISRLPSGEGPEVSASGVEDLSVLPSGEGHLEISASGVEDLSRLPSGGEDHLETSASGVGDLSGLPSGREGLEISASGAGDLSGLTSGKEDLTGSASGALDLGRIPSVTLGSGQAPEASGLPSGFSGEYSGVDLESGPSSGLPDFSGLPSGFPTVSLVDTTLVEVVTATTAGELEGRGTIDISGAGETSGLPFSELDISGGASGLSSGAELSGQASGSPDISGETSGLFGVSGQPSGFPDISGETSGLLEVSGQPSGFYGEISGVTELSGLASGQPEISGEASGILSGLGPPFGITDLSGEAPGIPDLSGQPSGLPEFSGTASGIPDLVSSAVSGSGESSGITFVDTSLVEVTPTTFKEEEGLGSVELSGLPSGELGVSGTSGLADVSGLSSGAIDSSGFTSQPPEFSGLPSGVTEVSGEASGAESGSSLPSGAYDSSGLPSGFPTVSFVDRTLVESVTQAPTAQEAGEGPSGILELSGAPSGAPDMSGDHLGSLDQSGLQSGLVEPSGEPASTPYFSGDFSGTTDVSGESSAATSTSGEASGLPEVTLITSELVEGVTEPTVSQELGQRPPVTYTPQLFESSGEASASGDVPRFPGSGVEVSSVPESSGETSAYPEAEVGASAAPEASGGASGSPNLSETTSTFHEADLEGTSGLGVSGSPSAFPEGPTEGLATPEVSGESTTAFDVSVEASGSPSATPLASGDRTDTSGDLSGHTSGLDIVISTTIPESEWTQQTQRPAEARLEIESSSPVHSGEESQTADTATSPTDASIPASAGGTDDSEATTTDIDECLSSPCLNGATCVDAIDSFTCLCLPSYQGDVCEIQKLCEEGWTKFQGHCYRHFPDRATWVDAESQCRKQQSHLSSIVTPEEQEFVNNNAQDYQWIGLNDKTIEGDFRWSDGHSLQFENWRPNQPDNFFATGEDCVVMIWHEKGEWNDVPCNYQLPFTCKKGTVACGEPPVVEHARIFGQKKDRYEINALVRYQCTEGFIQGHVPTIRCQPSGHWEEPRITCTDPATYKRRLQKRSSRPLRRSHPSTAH

Experiments:
[1] = target: T1, HB-GAM (heparin-binding growth-associated molecule; pleiotrophin) (rat) (UniProt P63090); test: SPR; Biacore T100; HB-GAM immobilised on a CM5 chip, blank channel as reference; 20 μl/min, 60 s injections; PTPσ injected at 1 μM and 5 μM; both purified
T1 sequence: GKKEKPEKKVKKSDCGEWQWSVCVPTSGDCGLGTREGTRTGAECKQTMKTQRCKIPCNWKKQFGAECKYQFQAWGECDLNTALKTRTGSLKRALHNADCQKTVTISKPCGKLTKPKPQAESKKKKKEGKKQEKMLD

[2] = target: Aggrecan (UniProt P13608); test: ELISA; solid phase binding assay: wells coated with aggrecan 10 μg/ml in PBS; PTPσ-Fc recombinants (80 nM) mixed with different concentrations of HB-GAM in 1% BSA, 0.05% Tween-20 in PBS, overnight at 4 °C; bound PTPσ detected with HRP-conjugated goat anti-human IgG (Fc part), OPD; both purified

B1: PTPσ (protein tyrosine phosphatase sigma) N-terminal extracellular part with the three Ig domains, Fc-tagged, wild type (Fc fusion, UniProt B0V2N1 30-321)
chain: EEPPRFIREPKDQIGVSGGVASFVCQATGDPKPRVTWNKKGKKVNSQRFETIDFDESSGAVLRIQPLRTPRDENVYECVAQNSVGEITIHAKLTVLREDQLPPGFPNIDMGPQLKVVERTRTATMLCAASGNPDPEITWFKDFLPVDPSASNGRIKQLRSGALQIESSEETDQGKYECVATNSAGVRYSSPANLYVRVRRVAPRFSILPMSHEIMPGGNVNITCVAVGSPMPYVKWMQGAEDLTPEDDMPVGRNVLELTDVKDSANYTCVAMSSLGVIEAVAQITVKSLPKA
binding [1]: no binding (tested: 1 μM and 5 μM) | binding [2]: binds

B2: HB-GAM (heparin-binding growth-associated molecule; pleiotrophin) (protein, UniProt P63090 33-168)
chain: T1 sequence
binding [2]: binds
